Results are given in words; binding and its absence hold for the method and conditions named. A result given as binding can be weak or reduced; the word gives no strength.
Target: epidermal growth factor receptor (EGFR) (human) (UniProt P00533)
Experiment: phage ELISA on Her-14 cells (vs 3T3) and/or solid-phase coated EGFR (vs non-coated well)

B1: EGFR-1.4 (VHH)
VHH: EVQLVESGGGLVQAGGSLRLSCAASGRTFSNYVMGWFRQAPGKERDFVVGIGRSGGDNTYYADSVKGRFTISWDNAKNTMYLQMNSLKPEDTAVYYCAASTYSRDTIFTKWANYNYWGQGTQVTVSS
- binding: binds

B2: EGFR-2.6 (VHH)
VHH: QVQLQESGGGLVQAGGSLRLSCAASGRTFSNYAMGWFRQAPGKEREFVAAINWGGGNTYYADSVKGRFTISRDNAKNTVYLQMNSLKPEDTAVYYCAASEWGGSDYDHDYDYWGQGTQVTVSS
- binding: binds

B3: EGFR-2.20 (VHH)
VHH: EVQLVESGGGLVQAGGSLRLSCAASGRSFSSYAMAWFRQAPGKEREFVAAISWGGGSTYYAVSVKGRFTISRDNAKNTVYLQMNSLKPEDTARYYCAADETFHSSAYGEYEYWGQGTQVTVSS
- binding: binds

B4: EGFR-IIIa5 (VHH)
VHH: EVQLVESGGGLVQAGGSLRLSCTASGRTFSSYAMGWFRQTPGKEREFVAAITSSGGSTYYADSVKGRFTISRDNAKSTMYLQMDSLMLDDTSVYYCAADSSRPQYSDSALRRILSLSNSYPYWGQGTQVTVSS
- binding: binds

B5: EGFR-3.18 (VHH)
VHH: EVQLVESGGGLVQPGGSLRLSCVASGFTFADYAMSWVRQAPGKGLQWVSSISYNGDTTYYAESMKDRFTISRDNAKNTLYLQMNSLKSEDTAVYYCASSGSYYPGHFESWGQGTQVTVSS
- binding: binds

B6: EGFR-3.32 (VHH)
VHH: QVQLQESGGGLVQAGGSLRLSCAASGRTFSGYAMGWFRQAPGEEREFVAAISWRGTSTYYGDSAKGRFTISRDNAKNTVYLQMNSLKPEDTAVYYCAAGSHSDYAPDYDYWGQGTQVTVSS
- binding: binds

B7: EGFR-3.34 (VHH)
VHH: QVQLQESGGGLVQAGGSLRLSCAASGRTFSSYAIGWFRQAPGKEREFVAAISWGGSNTYYADSVKGRFTISRDNAKNTVYLQMNSLKPEDTAVYYCAAGEVSNSDYAYEYDYWGQGTQVTVSS
- binding: binds

B8: EGFR-3.39 (VHH)
VHH: QVQLQESGGGLVQTGGSLRLSCAASGRYIMGWFRQAPGKEREFVAGISRSGASTAYADSVKDRFTISRDSALNTVYLQMNSLKAEDTAVYFCAAALAIRLGIPRGETEYEYWGQGTQVTVSS
- binding: binds

B9: EGFR-3.40 (VHH)
VHH: QVKLEESGGGLVQAGGSLRLSCSASGLTFSNYAMAWFRQAPGKEREFVATISQRGGMRHYLDSVKDRFTISRDNAKNTVYLQMNSLKPDDTAVYYCAADLMYGVDRRYDYWGRGTQVTVSS
- binding: binds

B10: EGFR-4.11 (VHH)
VHH: QVKLEESGGGLVQAGDSLRLSCAASGRSFSSITMGWFRQAPGKERQFVSAINSNGNRYYADSVKGRFTISRDNAKNTVYLQMNSLKPEDTAVYYCAAVQAYSSSSDYYSQEGAYDYWGQGTQVTVSS
- binding: binds

B11: EGFR-4.21 (VHH)
VHH: EVQLVESGGGLVQAGGSLRLSCAVSGRTFSSMGWFRQAPGKEREFVATINLSGDRTDYADSVKGRFTISRDNPKNTVYLQMDSLEPEDSAVYYCAGTSLYPSNLRYYTLPGTYADWGQGTQVTVSS
- binding: binds

B12: EGFR-1.9 (VHH)
VHH: QVQLQESGGGLVKAGGSLRLSCAASGRTFSSYVMGWFRQAPGKEREFVGAIHWSGGRTYYADSVKGRFTISSDNAKNTLYLQMNSLKPEDTAVYYCAASRIIYSYVNYVNPGEYDYWGQGTQVTVSS
- binding: binds

B13: EGFR-4.22 (VHH)
VHH: QVKLEESGGGLVQAGGSLRLSCAASGSIFSINAMGWYRQAPGKQRELVARITGTGTGITGAVSTNYADSVKGRFTISRDNARNTVYLQMNSLKPEDTAVYYCAADRSRTIVVPDYWGQGTQVTVSS
- binding: binds

B14: EGFR-1.33 (VHH)
VHH: EVQLVESGGGLVQPGGSLRLSCAASGFTFSSHYMSWFRQAPGKEREFVAAITSSSRTYYTESVKGRFTISRDNAKNTVYLQMNSLKSEDTAVYYCAADRTFYGSTWSKYDYRGQGTQVTVSS
- binding: binds

B15: EGFR-1.34 (VHH)
VHH: QVQLQESGGGLVQAGGSLRLSCAASGRTFSKYAMGWFRQAPGKEREFVSAISWSDGSTYYADSVKGRFTISRDNAKNTVYLQVNSLKPEDTAVYYCAATYLVDVWAVHVPIRPYEYDYWGQGTQVTVSS
- binding: binds

B16: EGFR-1.38 (VHH)
VHH: QVQLQDSGGGLVQAGDSLRLSCAASGRSFGGYAMGWFRQAPGKEREFVAAISWSGGSTYYADSLKGRFTISRDNAKNTVYLQMNSLKPEDTALYYCAAGLRPSPNYNHERSYDYWGQGTQVTVSS
- binding: binds

B17: EGFR-Ia1 (VHH)
VHH: QVQLQESGGGLVQAGGSLLLSCAASGRTFSSYAMGWFRQAPGKEREFVAAINWSGGSTSYADSVKGRFTISRDNTKNTVYLQMNSLKPEDTAAFYCAATYNPYSRDHYFPRMTTEYDYWGQGTQVTVSS
- binding: binds

B18: EGFR-Ia7 (VHH)
VHH: QVQLQESGGRLVQTGGSLRLSCAASGGTFGTYALGWFRQAPGKEREFVAAISRFGSTYYADSVKGRFTISRDNANNTVYLEMNSLKPEDTAVYYCAAREGVALGLRNDANYWGQGTQVTVSS
- binding: binds

B19: EGFR-Ia15 (VHH)
VHH: QVQLQDSGGGLVQAGGSLRLSCAASGGTFSSYAMGWFRQAPGKEREFVAAIGLNTYYADSVKGRFTISRDNAKNTVYLQMNSLKPEDTAVYYCAARTSGVVGGTPKRYDYWGQGTQVTVSS
- binding: binds

B20: EGFR-Ia26 (VHH)
VHH: QVQLQESGGGSVQAGGSLKLSCAASGRGFSRYAMGWFRQAPGQDREFVATISWTNSTDYADSVKGRFAISRDNAKNTAYLQMNSLKPEDTAVYYCAADKWASSTRSIDYDYWGQGIQVTVSS
- binding: binds
